{"sequences": {"note": "The chains behind the UniProt entries cited, without tags or fusion partners.", "UniProt H6D5H2, entry or part of it": "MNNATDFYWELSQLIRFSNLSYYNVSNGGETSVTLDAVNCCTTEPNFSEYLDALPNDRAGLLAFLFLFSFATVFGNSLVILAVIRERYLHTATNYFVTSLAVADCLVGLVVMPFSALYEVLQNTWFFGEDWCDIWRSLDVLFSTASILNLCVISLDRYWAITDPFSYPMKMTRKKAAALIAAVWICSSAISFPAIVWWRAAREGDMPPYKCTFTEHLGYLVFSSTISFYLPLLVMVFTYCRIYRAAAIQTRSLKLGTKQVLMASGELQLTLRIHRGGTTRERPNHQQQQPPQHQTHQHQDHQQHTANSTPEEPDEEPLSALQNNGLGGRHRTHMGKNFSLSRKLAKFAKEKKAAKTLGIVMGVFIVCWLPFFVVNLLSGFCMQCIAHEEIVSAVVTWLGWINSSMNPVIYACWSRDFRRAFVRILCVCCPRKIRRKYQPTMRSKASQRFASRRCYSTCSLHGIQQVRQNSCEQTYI"}, "source": "patent US20140350081A1", "about": "“INSECT G-COUPLED RECEPTORS USEFUL AS TARGETS FOR INSECTICIDES AND COMPOUNDS AND REAGENTS IDENTIFIED USING THE SAME” (priority 2011, published 2014)", "key": {"[1]": {"system": "adult Reticulitermes flavipes", "test": "Termite immersion assay", "type": "in vivo", "settings": "within five days", "from_the_text": "A series of whole organism bioassays was developed to further evaluate the toxicity of chemistries to a range of agricultural, veterinary and public health pests and non-target insects (Tables 12 and 13). These assays are designed to rapidly explore the biological activity spectrum of chemistries as well as to facilitate initial investigations of the mode of action of insecticidal compounds. Briefly, assays were developed for the German cockroach (Blatella germanica, urban pest), termite (Reticulitermes flavipes; urban pest), lone star tick (Amblyomma americana; veterinary and public health pest), soybean aphid (Aphis glycines, agricultural pest) and honeybee (Apis mellifera; beneficial, non-target insect). The assays were designed to test the toxicity and speed of kill of multiple chemistries on contact. Each of these assays was performed as a single point dose experiment in triplicate using either topical application of compound to the ventral thorax (1 μl of a […] compound solution in 1:1 v:v DMSO:EtOH vehicle; 50-80 μg effective dose depending on compound) as is the case for our cockroach and honeybee assays, or 10 second immersion in a solution of the compound diluted in water or DMSO:[…] […] Lead chemistries identified in our in vivo screen have been evaluated in the cockroach and termite assays."}, "AaDOP2": {"biological_target": "AaDOP2 (Aedes aegypti, UniProt H6D5H2)", "settings": "ratio of IC50 values hD1/AaDOP2; listed as amitriptyline"}}, "note": "Some of these results come from one statement about several compounds together.", "data": [{"smiles": "CN(C)CCC=C1c2ccccc2CCc2ccccc21", "note": "[Amitriptyline, (3-(10,11-dihydro-5H-dibenzo[a,d][7]annulen-5-ylidene)-N,N-dimethylpropan-1-amine)]", "values": [{"measurement": "mortality of adult termites", "setting": "[1]", "result": "70-100%"}, {"measurement": "Relative fold selectivity for AaDOP2 vs. hD1", "setting": "AaDOP2", "result": "more than 30 fold"}]}]}
